Results from PubChem BioAssay AID493014 (National Center for Advancing Translational Sciences (NCATS), 2011).
The campaign covered roughly 340,000 compounds. About 170 (0.05%) were called active. This list was built around the results that the source calls inconclusive (neither active nor inactive); the mix of calls is not that of the screen. Calls follow the shape of the dose curve; as a rule, active = well fitted inhibition curve with a large enough effect in the signal ratio, with a control signal flat (not every such curve was filed as active); inconclusive = small, poorly fitted or top-dose-only effect, or effect the other way, or a change in a side signal; inactive = flat fitted curve, though single readings scatter; the % refers to the signal ratio. A potency beside an inconclusive call is a rough fit, not a confirmed value.

Test: qHTS Assay to Find Inhibitors of Chronic Active B-Cell Receptor Signaling;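 as to activity change, negative = inhibition: plate controls were basal doxycycline-induced cells for no effect and cells given 10 µM MG132 for full effect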
Conditions: ABC-DLBCL IkBa-CBG/CBR reporter, luminescence ratio (green luciferase fused to IkBa over red control in TMD8 lymphoma cells), 4 h; activity change, negative = inhibition: at 46.1 µM (top of the series)
Outline: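 TMD8 ABC-DLBCL cells carrying doxycycline-inducible green luciferase fused to IkappaBalpha plus unfused red luciferase were exposed to compounds (up to 46 uM) for 4 hrs at 37C. Activity came from the overlap-corrected green/red luminescence ratio.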
Potency is read from the fitted curve at half-maximal effect.

Row | Structure (SMILES) | activity change, negative = inhibition | Potency
1 | Cc1ccc([C@H]2C(C(=O)O)=CC[C@@H](c3ccc(Cl)cc3)N2S(=O)(=O)c2ccc(C)cc2)cc1 | inactive: -3.76% | –
2 | O=C(Nc1nccs1)c1ccc2ccccc2n1 | – | inconclusive: 35.5 µM [rising, single point]
3 | COCCNC(=O)Cn1cnc2sc(C)c(S(=O)(=O)N3CCC(C)CC3)c2c1=O | inconclusive: 5.54% | –
4 | COCCn1c(-c2ccccc2Cl)nc2c(c(=O)c3ccccc3n2C)c1=O | inconclusive: 0.168% | –
5 | CCOc1cc(/C=C2\C(=O)ON=C2c2ccccc2)ccc1OC | inactive: 10.6% | –
6 | Cc1ccc(-c2cc3ccccc3nc2N2CCOCC2)cc1 | inconclusive: 8.5% | –
7 | CCCCOc1ccc(-c2nn(-c3ccccc3)cc2C2NC(=O)NC(C)=C2C(=O)OC)cc1 (configuration not stated) | inconclusive: -17.5% | –
8 | COc1ccc(-c2ccc(-c3noc(-c4ccco4)n3)c(OC)n2)cc1 | inactive: 15.5% | –
9 | Cc1cc(=O)oc2cc(OCC(=O)Nc3nccs3)ccc12 | – | inconclusive: 25.1 µM [falling, single point]
10 | Cc1nc(NC2=NCN(Cc3cccnc3)CN2)nc2ccccc12 | inconclusive: -1.38% | –
11 | O=C(CSc1nnnn1C1CCCCC1)N1c2ccccc2Sc2ccccc21 | inconclusive: -0.165% | –
12 | Cc1nc(SCC(=O)NCc2ccccc2)c2oc3ccccc3c2n1 | inconclusive: 24.3% | –
13 | O=[N+]([O-])c1ccc(N2CCNCC2)cc1Sc1nc2ccccc2[nH]1 | inactive: -17.2% | –
14 | N#Cc1ccc(COC(=O)c2cccnc2Cl)cc1 | inconclusive: 1.51% | –
15 | COc1ccc(CCNC(=O)CSc2nc(O)cc(=O)[nH]2)cc1OC | inactive: -0.942% | –
16 | S=c1[nH]nc(-c2cccc(Cl)c2)n1/N=C/c1ccc(-c2ccccc2Br)o1 | inconclusive: -0.063% | –
17 | O=C(Nc1ccc(F)cc1)Nc1ccc(N2CCCC2)c(S(=O)(=O)Nc2ccccc2Cl)c1 | inconclusive: 1.02% | –
18 | COc1ccccc1Nc1nnc(SCC(=O)Nc2cc(C)on2)s1 | – | inconclusive: 2.59 µM [falling, full curve]
19 | Cc1ccc2c(c1)N(CC(=O)NCc1ccco1)C(=O)C(C(C)C)O2 (configuration not stated) | inconclusive: 1.5% | –
20 | COc1ccc(Cl)cc1NC(=O)c1c(NCc2ccc(C)o2)sc2c1CCCCC2 | inconclusive: -19.9% | –
21 | Cn1c(=O)c2c(nc(NCCO)n2CCc2ccccc2)n(C)c1=O | inactive: 2.61% | –
22 | Cc1cccc(N(CC(=O)NC2CCCCC2)C(=O)CCCC(=O)Nc2ccccn2)c1 | inconclusive: -5.32% | –
23 | Cc1ccc(S(=O)(=O)c2cnc(-c3ccccc3)nc2N2CCCCC2)cc1 | inconclusive: -2.08% | –
24 | COc1cc([N+](=O)[O-])cc(/C=N/NC(=O)c2cccnc2)c1O | – | inconclusive: 35.5 µM [falling, single point]
25 | O=C(c1ccccc1)N1CCN(c2ccc(NCc3ccc4c(c3)OCO4)cc2)CC1 | inactive: -19.6% | –
26 | COc1ccccc1C(=O)n1nc(-c2cccnc2)nc1N | inconclusive: 5.86% | –

From compound 18 to 20, copied from above:
Row | Structure (SMILES) | activity change, negative = inhibition | Potency
18 | COc1ccccc1Nc1nnc(SCC(=O)Nc2cc(C)on2)s1 | – | inconclusive: 2.59 µM [falling, full curve]
19 | Cc1ccc2c(c1)N(CC(=O)NCc1ccco1)C(=O)C(C(C)C)O2 (configuration not stated) | inconclusive: 1.5% | –
20 | COc1ccc(Cl)cc1NC(=O)c1c(NCc2ccc(C)o2)sc2c1CCCCC2 | inconclusive: -19.9% | –

(next part)

Row | Structure (SMILES) | activity change, negative = inhibition | Potency
27 | Cc1cccc(NC(=S)NCc2ccccn2)c1 | – | inconclusive: 35.5 µM [falling, single point]
28 | O=C(Nc1ccccc1C(=O)NC(Cc1ccc(O)cc1)C(=O)O)c1ccccc1 (configuration not stated) | inconclusive: -18% | –
29 | COc1ccc(C)cc1NC(=O)CN1CCN(c2ccccc2F)CC1 | inconclusive: 6.98% | –
30 | Cc1ccc(S(=O)(=O)CCC(=O)OCc2nc(N)nc(Nc3ccccc3C)n2)cc1 | – | inconclusive: 16.4 µM [falling, single point]
31 | CC(C)C[C@H](CO)Nc1nc(Nc2cccc(Cl)c2)c2ncn(C(C)C)c2n1 | inconclusive: 5.93% | –
32 | COc1cc2c(C(=O)Nc3ccccc3F)cn(C)c(=O)c2cc1OC | inconclusive: -2.88% | –
33 | COc1ccc(CCNS(=O)(=O)c2ccc3c(c2)NC(=O)C(C)S3)cc1OC (configuration not stated) | inconclusive: 9.14% | –
34 | COc1ccc(C(=O)Nc2ccc(S(=O)(=O)NC(C)(C)C)cc2)cc1[N+](=O)[O-] | – | inconclusive: 35.5 µM [falling, partial curve, poor fit]
35 | Cc1nc2cc(C(=O)N3c4ccccc4CC3C)ccc2s1 (configuration not stated) | – | inconclusive: 35.5 µM [falling, single point]
36 | COc1ccc(N(C(=O)C2CCCCC2)S(=O)(=O)c2cccc3cccnc23)cc1 | inconclusive: -10.9% | –
37 | COc1ccc(NC(=O)c2ccc3c(c2)N(C)CCS3)cc1 | – | inconclusive: 11.2 µM [falling, partial curve]
38 | Nc1nc2ccc(NC(=O)c3ccco3)cc2s1 | – | inconclusive: 17.8 µM [falling, partial curve]
39 | Cc1ccc2c(c1)C1CN(C)CCC1N2C(=O)COc1ccc(N(C)C(=O)C(C)(C)C)cc1 (configuration not stated) | inactive: 4.99% | –
40 | O=C(CN1C(=O)NC2(CCCCCC2)C1=O)Nc1cccc(F)c1 | – | inconclusive: 7.31 µM [falling, partial curve, poor fit]
41 | CCOc1ccc(/C=N/NC(=O)c2ccccc2Cl)cc1CN1CC2CC(C1)c1cccc(=O)n1C2 (configuration not stated) | – | inconclusive: 23.1 µM [falling, single point]
42 | C=CCN(C(=O)CCC(=O)Nc1cc(C)on1)C(C(=O)NC(C)(C)C)c1cccc(OC)c1OC (configuration not stated) | inconclusive: 2.41% | –
43 | Cc1ccc2nc(N(Cc3cccnc3)C(=O)COc3ccccc3)sc2c1 | – | inconclusive: 35.5 µM [rising, single point]
44 | O=C(Nc1ccc(N2CCN(C(=O)c3ccccc3)CC2)c(Cl)c1)c1cccnc1 | inconclusive: -4.78% | –
45 | c1ccc(CNc2c3ccccc3nc3ccccc23)cc1 | inconclusive: 6.76% | –
46 | O=C(O)C1C2C=CC(O2)C1C(=O)Nc1ccc2c(c1)OCCO2 (configuration not stated) | – | inconclusive: 35.5 µM [falling, partial curve, poor fit]
47 | CCOC(=O)c1ccc(N=NN(C)C)cc1 | inconclusive: 6.3% | –
48 | N#Cc1cc2cc3c(cc2nc1SCC(=O)N1CCOCC1)OCO3 | inactive: 1.95% | –
49 | C[C@@H](NC(=O)[C@@H]1Cc2ccccc2CN1C(=O)OC(C)(C)C)C(=O)NC1CCCCC1 | – | inconclusive: 12.6 µM [falling, partial curve]
50 | CC(C)Oc1ccc(C(=O)OCC(=O)NC(=O)NC2CCCC2)cc1 | inactive: -0.195% | –
51 | O=C(Nc1ccccc1)c1nnsc1S(=O)(=O)c1ccc(Cl)cc1 | inconclusive: 9.2% | –
52 | CCOc1ccc(S(=O)(=O)Nc2cc(SCC(=O)O)c(O)c3ccccc23)cc1 | – | inconclusive: 22.4 µM [falling, single point]

Row | Structure (SMILES) | activity change, negative = inhibition | Potency
53 | O=C(Nc1cc2c3c(c1)CC(=O)N3CCC2)c1ccccc1F | – | inconclusive: 16.4 µM [falling, single point]
54 | COc1ccc(OCC(O)CN(CC(O)COc2ccc(OC)cc2)c2cccc(O)c2)cc1 (configuration not stated) | – | inconclusive: 35.5 µM [falling, single point]
55 | COc1ccc(OCc2cccc(C(=O)NN)c2)cc1 | – | inconclusive: 18.4 µM [falling, partial curve]
56 | Cc1ccsc1C(=O)OCc1nc2ccccc2c(=O)[nH]1 | – | inconclusive: 18.4 µM [falling, partial curve]
57 | COc1ccc(-n2nc(C(=O)NCC(=O)N3CCOCC3)c3ccccc3c2=O)cc1Cl | inconclusive: -3.91% | –
58 | CCOC(=O)c1cc(-c2csc(-c3cccc(Cl)c3)n2)on1 | inconclusive: 6.91% | –
59 | C=CCN=C1N[C@@H](c2cccc(C(F)(F)F)c2)C(C(=O)OC)=C(C)N1CC | inconclusive: -19.5% | –
60 | O=C(O)CC/C(=N/NC(=O)c1cccs1)c1ccccc1 | – | inconclusive: 20.6 µM [falling, partial curve]
61 | Cc1cccc(C(=O)NCCC(=O)N2CCc3ccccc3C2)c1 | inactive: 3.94% | –
62 | CCOc1c(Cl)cc(Cl)cc1CNCCNCCO | inactive: -21.8% | –
63 | CCN(CC)CCN1C(=O)C(O)=C(C(=O)c2cccs2)C1c1ccccn1 (configuration not stated) | inconclusive: -23.3% | –
64 | COC(=O)c1[nH]nc(C(=O)OC(C)(C)C)c1-c1ccccc1 | inactive: -8.54% | –
65 | O=C(COc1ccccc1)N(Cc1ccco1)C1CCS(=O)(=O)C1 (configuration not stated) | inconclusive: -4.77% | –
66 | O=S(=O)(Nc1cccc(S(=O)(=O)N2CCOCC2)c1)c1ccc2c(c1)OCCO2 | inconclusive: -12.4% | –
67 | CCN(CC(=O)Nc1ccc(OC)cc1)C(=O)Cc1ccsc1 | inactive: 0.292% | –
68 | Fc1ccc(C(Nc2ccccn2)c2c[nH]c3ccccc23)cc1 (configuration not stated) | – | inconclusive: 14.1 µM [falling, partial curve, poor fit]
69 | Cc1ccc(C(=O)O)cc1-c1ccc(/C=C2/NC(=O)N(c3ccccc3)C2=O)o1 | – | inconclusive: 3.26 µM [rising, partial curve, poor fit]
70 | Cc1ccc(Cl)cc1N1CCN(CC(O)COC(C)C)CC1 (configuration not stated) | – | inconclusive: 31.6 µM [falling, partial curve, poor fit]
71 | COc1cc(OC)cc(-c2nnc(SCc3cccc(C(=O)O)c3)o2)c1 | – | inconclusive: 7.31 µM [falling, partial curve]
72 | Cc1ccc(SCc2nc3ccccc3[nH]2)cc1 | inconclusive: -1.03% | –
73 | CC1(C)CC2(CC(c3ccccc3F)c3cc(Cl)c(O)cc3O2)NC(=S)N1 (configuration not stated) | – | inconclusive: 10 µM [falling, partial curve, poor fit]
74 | O=C(CCC1N=C2c3ccccc3N=C(SCc3ccc(F)cc3)N2C1=O)NCc1cccs1 (configuration not stated) | inconclusive: 9.45% | –
75 | COc1ccc(/C=C2\CCC(C3CCCC3)C2=O)cc1Cn1nc(C)cc1C (configuration not stated) | inconclusive: 5.71% | –
76 | O=C(Nc1cccc2ccccc12)c1ccc([N+](=O)[O-])cc1 | inconclusive: -29.3% | –
77 | CCN(C(=O)COC(=O)c1ccc([N+](=O)[O-])o1)c1cccc2ccccc12 | inconclusive: -6.6% | –
